This note sets out measurements from paper PMC2760709.

The chains behind the UniProt entries cited, without tags or fusion partners. Where a name states a change or a piece, a line headed by the entry shows the natural chain unless it says otherwise.
UniProt P26361: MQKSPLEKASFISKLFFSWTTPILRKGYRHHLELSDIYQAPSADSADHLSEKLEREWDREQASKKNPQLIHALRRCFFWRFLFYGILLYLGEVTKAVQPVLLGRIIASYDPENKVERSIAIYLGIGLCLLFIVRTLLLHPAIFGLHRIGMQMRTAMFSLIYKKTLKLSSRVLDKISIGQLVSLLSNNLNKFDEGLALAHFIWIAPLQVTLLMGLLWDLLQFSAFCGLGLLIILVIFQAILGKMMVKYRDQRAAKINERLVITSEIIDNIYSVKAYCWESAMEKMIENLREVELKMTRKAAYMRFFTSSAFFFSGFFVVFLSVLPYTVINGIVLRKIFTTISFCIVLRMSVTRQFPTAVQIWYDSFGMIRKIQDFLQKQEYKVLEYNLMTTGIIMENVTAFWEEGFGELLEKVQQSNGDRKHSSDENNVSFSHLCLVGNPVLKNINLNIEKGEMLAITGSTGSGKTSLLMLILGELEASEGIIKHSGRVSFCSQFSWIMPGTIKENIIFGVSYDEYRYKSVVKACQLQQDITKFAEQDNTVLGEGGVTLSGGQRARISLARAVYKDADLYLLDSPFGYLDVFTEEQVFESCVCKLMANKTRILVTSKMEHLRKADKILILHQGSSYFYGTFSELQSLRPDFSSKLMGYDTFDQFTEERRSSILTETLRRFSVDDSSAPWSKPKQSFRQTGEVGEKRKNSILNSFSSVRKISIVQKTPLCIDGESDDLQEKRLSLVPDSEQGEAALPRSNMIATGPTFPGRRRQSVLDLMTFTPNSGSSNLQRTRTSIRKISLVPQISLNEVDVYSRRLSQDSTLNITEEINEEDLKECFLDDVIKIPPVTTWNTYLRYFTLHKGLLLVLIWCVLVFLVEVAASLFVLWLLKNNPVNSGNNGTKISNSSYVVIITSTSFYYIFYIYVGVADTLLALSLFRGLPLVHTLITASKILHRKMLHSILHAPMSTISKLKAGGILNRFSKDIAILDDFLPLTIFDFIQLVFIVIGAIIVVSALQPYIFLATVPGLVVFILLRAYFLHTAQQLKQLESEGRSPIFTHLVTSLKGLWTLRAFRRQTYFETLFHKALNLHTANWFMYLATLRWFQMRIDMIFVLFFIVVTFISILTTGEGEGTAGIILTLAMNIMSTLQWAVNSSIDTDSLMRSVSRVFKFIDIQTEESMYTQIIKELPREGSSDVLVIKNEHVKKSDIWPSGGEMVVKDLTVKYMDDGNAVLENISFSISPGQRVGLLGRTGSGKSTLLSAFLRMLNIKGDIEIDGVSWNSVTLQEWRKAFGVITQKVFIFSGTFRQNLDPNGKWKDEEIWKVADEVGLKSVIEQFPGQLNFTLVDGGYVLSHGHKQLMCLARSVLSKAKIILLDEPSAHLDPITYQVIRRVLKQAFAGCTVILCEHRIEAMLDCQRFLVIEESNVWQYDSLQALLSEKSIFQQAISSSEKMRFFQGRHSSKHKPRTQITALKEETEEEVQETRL

No constants are given. Whether binding was seen depends on the method and setting.

This assay concerns the target NBD1 domain of CFTR (mouse) (mouse) (UniProt P26361). Put plainly: SPR; NBD1 amine-coupled on CM5 chip (Biacore 2000), analyte injected directly; 25°C, 30 µl/min; 50 mM Tris, 150 mM NaCl, 5 mM MgCl2 pH 7.6, 0.005% P20, 1 mM DTT, 0.1 µM CaCl2; simple two-component model; apparent Kd; both purified.

B1: annexin-A1 (ANXA1), bovine (protein, UniProt P46193 1-346)
chain: MAMVSEFLKQAWFIENEEQEYIKTVKGSKGGPGSAVSPYPTFNPSSDVEALHKAITVKGVDEATIIEILTKRNNAQRQQIKAAYLQEKGKPLDEVLKKALLGHLEEVVLALLKTPAQFDAEELRAAMKGLGTDEDTLNEILASRTNREIREINRVYREELKRDLAKDIASDTSGDYEKALLSLAKGDRSEELAVNDDLADSDARALYEAGERRKGTDVNVFITILTTRSYPHLRRVFQKYSKYSKHDMNKVLDLELKGDIEKCLTVIVKCATSQPMFFAEKLHQAMKGIGTRHKTLIRIMVSRSEIDMNDIKACYQKLYGISLCQAILDETKGDYEKILVALCGRD
For B1, the binding entry is reported as “no binding (tested: 100 µg/ml)”.
